From patent US20240261429A1, “CPMV BINDING PEPTIDE” (The Regents of the University of California, priority 2021, published 2024)

target: potato virus X (PVX) (Potato virus X); assay: cross-reactivity phage ELISA

**Q.** With GWRVSEF [monoclonal phage MPSEF (M13 phage displaying GWRVSEF)] as the binder, how does the binding read?
**A.** no binding (tested: 10^9 pfu of phage, 5 µg of virus coated)

**Q.** Which binding does the source give for GFHYSLH [monoclonal phage MPSLH (M13 phage displaying GFHYSLH)] here?
**A.** no binding (tested: 10^9 pfu of phage, 5 µg of virus coated)

**Q.** How did the binding turn out when GWRVSEL [monoclonal phage MPSEL (M13 phage displaying GWRVSEL)] was run?
**A.** no binding (tested: 10^9 pfu of phage, 5 µg of virus coated)

No constants are given. Whether binding was seen depends on the method and setting.
